Reference: PubChem BioAssay AID1159591 (NIAID, 2016)
The whole screen tested 756 reagents; below is a part drawn at random. 130 of them (17%) were called active. 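Active calls include both lower and higher Tnf reporter signal.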 The numbers tell different reagents against one gene apart. Not stated in the record: the amount of reagent.

Assay: 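Effects of TLR pathway gene knock-down on R848-induced Tnf reporter in macrophages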
Cell system: mouse RAW264.7 G9 macrophage reporter clone (GFP-p65, Tnf promoter-mCherry)
Reagents: single siRNA against mouse genes
Duration: cells assayed 48 to 72 hours after siRNA transfection; R848 for 16 hours before fixing
Treatment: R848 (TLR7/8 agonist) for 16 hours before fixation; dose not given
Measurement: 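mCherry Tnf promoter reporter in nuclei imaged after 16 hours of R848, background removed, robust z relative to non-targeting controls using plate median and MAD, replicate average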
Reading the numbers: mean Tnf reporter z-score: higher = stronger Tnf promoter reporter signal than controls
Active means: 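Absolute z above 1, 1.5, 2 or 2.5 scores 25 up to 100; no stated active threshold; in practice calls fall at roughly z ≤ -1.5 or z ≥ 1.5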
Calls: active = reporter clearly up or down; inactive = little reporter change

target | reagent | mean Tnf reporter z-score | Outcome
Irf9 | 1 | 0.962 | inactive
Irf9 | 2 | -0.554 | inactive
Irf9 | 3 | 0.551 | inactive
Irf9 | 4 | 1.91 | active
Irf9 | 5 | 1.83 | active
Irf9 | 6 | -0.218 | inactive
Map3k7 | 1 | -0.016 | inactive
Map3k7 | 2 | -0.093 | inactive
Map3k7 | 3 | -1.1 | inactive
Map3k7 | 4 | 0.202 | inactive
Map3k7 | 5 | -1.45 | inactive
Map3k7 | 6 | -2.17 | active
Pik3ca | 1 | -0.142 | inactive
Pik3ca | 2 | 0.877 | inactive
Pik3ca | 3 | -0.186 | inactive
Pik3ca | 4 | -0.965 | inactive
Pik3ca | 5 | -1.77 | active
Pik3ca | 6 | -3.1 | active
Arf6 | 1 | 0.0542 | inactive
Arf6 | 2 | 0.641 | inactive
Arf6 | 3 | -0.27 | inactive
Arf6 | 4 | 0.953 | inactive
Arf6 | 5 | 0.705 | inactive
Arf6 | 6 | 0.217 | inactive
Tab2 | 1 | 0.318 | inactive
Tab2 | 2 | 0.0984 | inactive
Tab2 | 3 | -0.961 | inactive
Tab2 | 4 | -1.07 | inactive
Tab2 | 5 | -0.811 | inactive
Tab2 | 6 | -0.138 | inactive
Rac1 | 1 | 0.126 | inactive
Rac1 | 2 | 1.12 | inactive
Rac1 | 3 | -0.786 | inactive
Rac1 | 4 | 0.26 | inactive
Rac1 | 5 | -3.15 | active
Rac1 | 6 | -0.0314 | inactive
Cd180 | 1 | -1.04 | inactive
Cd180 | 2 | 0.259 | inactive
Cd180 | 3 | 0.0807 | inactive
Cd180 | 4 | -0.734 | inactive
Cd180 | 5 | -1.03 | inactive
Cd180 | 6 | -0.186 | inactive
Irf3 | 1 | 1.88 | active
Irf3 | 2 | 0.182 | inactive
Irf3 | 3 | -2.7 | active
Irf3 | 4 | -1.71 | active
Irf3 | 5 | -0.393 | inactive
Irf3 | 6 | 1.15 | inactive
Ikbkb | 1 | -1.1 | inactive
Ikbkb | 2 | -1.89 | active
Ikbkb | 3 | -0.875 | inactive
Ikbkb | 4 | 0.436 | inactive
Ikbkb | 5 | -1.4 | inactive
Ikbkb | 6 | -0.395 | inactive
Irak1 | 1 | -0.865 | inactive
Irak1 | 2 | 0.538 | inactive
Irak1 | 3 | -0.413 | inactive
Irak1 | 4 | 1.63 | active
Irak1 | 5 | 0.197 | inactive
Irak1 | 6 | -0.704 | inactive
Ly86 | 1 | 0.176 | inactive
Ly86 | 2 | -0.727 | inactive
Ly86 | 3 | -0.406 | inactive
Ly86 | 4 | 0.595 | inactive
Ly86 | 5 | 1.52 | active
Ly86 | 6 | -1.23 | inactive
Mapk13 | 1 | -2.22 | active
Mapk13 | 2 | -1.69 | active
Mapk13 | 3 | -0.731 | inactive
Mapk13 | 4 | -0.889 | inactive
Mapk13 | 5 | -0.405 | inactive
Mapk13 | 6 | -0.49 | inactive
Tlr5 | 1 | 0.143 | inactive
Tlr5 | 2 | 1 | inactive
Tlr5 | 3 | -0.178 | inactive
Tlr5 | 4 | 0.462 | inactive
Tlr5 | 5 | -0.846 | inactive
Tlr5 | 6 | 0.781 | inactive
Ccl3 | 1 | -0.564 | inactive
Ccl3 | 2 | -0.0831 | inactive
Ccl3 | 3 | -1.04 | inactive
Ccl3 | 4 | 1.15 | inactive
Ccl3 | 5 | 1 | inactive
Ccl3 | 6 | -3.16 | active
Mapk14 | 1 | -0.156 | inactive
Mapk14 | 2 | 0.273 | inactive
Mapk14 | 3 | -0.331 | inactive
Mapk14 | 4 | -0.358 | inactive
Mapk14 | 5 | -1.66 | active
Mapk14 | 6 | -0.72 | inactive
Il6 | 1 | -0.531 | inactive
Il6 | 2 | 0.113 | inactive
Il6 | 3 | 0.747 | inactive
Il6 | 4 | -0.263 | inactive
Il6 | 5 | -0.00105 | inactive
Il6 | 6 | 0.787 | inactive
Mapk10 | 1 | 0.977 | inactive
Mapk10 | 2 | 1.2 | inactive
Mapk10 | 3 | -0.798 | inactive
Mapk10 | 4 | 1.28 | inactive
Mapk10 | 5 | -0.928 | inactive
Mapk10 | 6 | 0.232 | inactive
Map2k2 | 1 | -0.0883 | inactive
Map2k2 | 2 | -1.2 | inactive
Map2k2 | 3 | -0.858 | inactive
Map2k2 | 4 | -0.917 | inactive
Map2k2 | 5 | -1.31 | inactive
Map2k2 | 6 | 0.154 | inactive
Casp8 | 1 | 0.344 | inactive
Casp8 | 2 | -1.14 | inactive
Casp8 | 3 | -0.229 | inactive
Casp8 | 4 | -0.543 | inactive
Casp8 | 5 | -0.155 | inactive
Casp8 | 6 | 0.502 | inactive

Entries listed so far whose target name begins with R or r:
target | reagent | mean Tnf reporter z-score | Outcome
Rac1 | 1 | 0.126 | inactive
Rac1 | 2 | 1.12 | inactive
Rac1 | 3 | -0.786 | inactive
Rac1 | 4 | 0.26 | inactive
Rac1 | 5 | -3.15 | active
Rac1 | 6 | -0.0314 | inactive
